Experimental data as given in the supplement of paper PMC10849652.
The other results are listed elsewhere or left out.

By UniProt entry, the sequences of proteins in these tests, tags left out. Where a name states a change or a piece, a line headed by the entry shows the natural chain unless it says otherwise.
UniProt Q96KR1: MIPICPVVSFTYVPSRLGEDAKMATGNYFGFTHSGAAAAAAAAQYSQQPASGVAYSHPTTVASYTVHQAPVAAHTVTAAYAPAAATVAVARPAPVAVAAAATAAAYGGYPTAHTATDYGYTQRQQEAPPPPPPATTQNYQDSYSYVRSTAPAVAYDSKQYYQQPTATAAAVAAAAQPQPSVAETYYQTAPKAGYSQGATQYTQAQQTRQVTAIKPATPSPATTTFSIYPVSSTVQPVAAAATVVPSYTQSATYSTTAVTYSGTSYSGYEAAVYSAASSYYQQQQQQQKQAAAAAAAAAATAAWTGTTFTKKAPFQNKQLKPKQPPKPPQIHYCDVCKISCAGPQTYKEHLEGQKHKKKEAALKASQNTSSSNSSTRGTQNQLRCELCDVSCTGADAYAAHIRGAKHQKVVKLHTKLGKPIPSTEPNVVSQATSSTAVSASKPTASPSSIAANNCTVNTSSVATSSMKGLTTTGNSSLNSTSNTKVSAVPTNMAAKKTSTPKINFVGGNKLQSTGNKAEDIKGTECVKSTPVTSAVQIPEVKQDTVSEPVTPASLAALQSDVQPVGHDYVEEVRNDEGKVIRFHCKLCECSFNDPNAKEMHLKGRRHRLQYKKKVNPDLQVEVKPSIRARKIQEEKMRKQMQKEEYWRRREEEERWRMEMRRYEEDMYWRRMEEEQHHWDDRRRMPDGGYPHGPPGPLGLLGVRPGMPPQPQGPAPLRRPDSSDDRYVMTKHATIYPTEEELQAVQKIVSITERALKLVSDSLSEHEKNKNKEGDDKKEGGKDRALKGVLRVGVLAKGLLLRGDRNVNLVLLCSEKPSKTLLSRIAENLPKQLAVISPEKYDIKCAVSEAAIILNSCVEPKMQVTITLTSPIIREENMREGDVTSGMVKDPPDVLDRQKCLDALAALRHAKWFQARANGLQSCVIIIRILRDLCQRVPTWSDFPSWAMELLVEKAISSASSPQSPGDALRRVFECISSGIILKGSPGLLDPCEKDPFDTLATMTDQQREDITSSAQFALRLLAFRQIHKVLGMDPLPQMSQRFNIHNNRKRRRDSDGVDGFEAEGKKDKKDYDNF
UniProt O75152: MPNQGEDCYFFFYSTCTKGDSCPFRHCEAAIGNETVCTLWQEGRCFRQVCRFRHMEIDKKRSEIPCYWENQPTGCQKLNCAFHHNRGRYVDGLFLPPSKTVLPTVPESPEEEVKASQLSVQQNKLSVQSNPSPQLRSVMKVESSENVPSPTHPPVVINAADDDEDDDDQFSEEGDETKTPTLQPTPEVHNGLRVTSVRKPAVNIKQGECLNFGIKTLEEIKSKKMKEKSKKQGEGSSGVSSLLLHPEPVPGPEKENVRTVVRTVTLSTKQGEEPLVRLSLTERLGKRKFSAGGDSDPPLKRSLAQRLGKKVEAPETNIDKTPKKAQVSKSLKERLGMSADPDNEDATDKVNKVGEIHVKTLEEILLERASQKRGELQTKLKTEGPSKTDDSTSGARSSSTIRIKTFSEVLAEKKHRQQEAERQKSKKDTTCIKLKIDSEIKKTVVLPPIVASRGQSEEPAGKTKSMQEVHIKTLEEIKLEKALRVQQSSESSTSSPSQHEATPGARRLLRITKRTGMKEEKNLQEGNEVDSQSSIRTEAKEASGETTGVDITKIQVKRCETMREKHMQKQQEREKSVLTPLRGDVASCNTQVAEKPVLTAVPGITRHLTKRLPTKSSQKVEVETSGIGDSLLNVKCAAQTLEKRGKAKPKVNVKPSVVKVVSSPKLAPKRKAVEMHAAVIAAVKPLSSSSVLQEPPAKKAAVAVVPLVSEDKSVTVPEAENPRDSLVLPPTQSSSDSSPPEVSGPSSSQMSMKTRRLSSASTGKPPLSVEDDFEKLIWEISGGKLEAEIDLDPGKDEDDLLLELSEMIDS
UniProt Q9HAV4: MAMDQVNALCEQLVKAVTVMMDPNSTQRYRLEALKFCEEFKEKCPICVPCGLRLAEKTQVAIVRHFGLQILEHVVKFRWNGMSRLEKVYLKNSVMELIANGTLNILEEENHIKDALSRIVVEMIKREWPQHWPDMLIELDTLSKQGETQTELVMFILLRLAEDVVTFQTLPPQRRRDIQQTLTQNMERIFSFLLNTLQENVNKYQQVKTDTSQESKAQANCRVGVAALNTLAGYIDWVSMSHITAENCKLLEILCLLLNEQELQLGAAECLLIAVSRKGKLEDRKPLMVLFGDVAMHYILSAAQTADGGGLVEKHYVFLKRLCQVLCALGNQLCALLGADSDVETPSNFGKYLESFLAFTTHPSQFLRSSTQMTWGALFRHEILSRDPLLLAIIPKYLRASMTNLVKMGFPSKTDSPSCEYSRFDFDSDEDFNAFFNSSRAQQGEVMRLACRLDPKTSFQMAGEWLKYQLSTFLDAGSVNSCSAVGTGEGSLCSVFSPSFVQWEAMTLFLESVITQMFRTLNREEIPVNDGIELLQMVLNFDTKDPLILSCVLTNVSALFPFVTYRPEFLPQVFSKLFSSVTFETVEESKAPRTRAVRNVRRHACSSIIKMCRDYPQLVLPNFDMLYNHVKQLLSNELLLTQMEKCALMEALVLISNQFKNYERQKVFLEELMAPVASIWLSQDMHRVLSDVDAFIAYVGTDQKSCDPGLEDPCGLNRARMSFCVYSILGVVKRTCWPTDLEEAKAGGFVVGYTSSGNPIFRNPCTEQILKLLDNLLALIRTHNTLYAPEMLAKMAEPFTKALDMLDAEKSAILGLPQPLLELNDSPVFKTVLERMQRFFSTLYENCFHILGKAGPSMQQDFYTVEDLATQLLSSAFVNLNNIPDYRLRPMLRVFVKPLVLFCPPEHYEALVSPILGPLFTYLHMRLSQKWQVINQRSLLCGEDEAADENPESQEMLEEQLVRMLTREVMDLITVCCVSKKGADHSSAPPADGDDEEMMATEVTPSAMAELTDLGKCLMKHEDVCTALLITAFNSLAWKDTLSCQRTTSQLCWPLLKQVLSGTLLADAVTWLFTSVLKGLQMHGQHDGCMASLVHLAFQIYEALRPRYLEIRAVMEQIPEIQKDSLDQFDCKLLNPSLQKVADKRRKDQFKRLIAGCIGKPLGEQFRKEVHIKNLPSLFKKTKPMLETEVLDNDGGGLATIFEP
UniProt P25490, whole entry, looked up: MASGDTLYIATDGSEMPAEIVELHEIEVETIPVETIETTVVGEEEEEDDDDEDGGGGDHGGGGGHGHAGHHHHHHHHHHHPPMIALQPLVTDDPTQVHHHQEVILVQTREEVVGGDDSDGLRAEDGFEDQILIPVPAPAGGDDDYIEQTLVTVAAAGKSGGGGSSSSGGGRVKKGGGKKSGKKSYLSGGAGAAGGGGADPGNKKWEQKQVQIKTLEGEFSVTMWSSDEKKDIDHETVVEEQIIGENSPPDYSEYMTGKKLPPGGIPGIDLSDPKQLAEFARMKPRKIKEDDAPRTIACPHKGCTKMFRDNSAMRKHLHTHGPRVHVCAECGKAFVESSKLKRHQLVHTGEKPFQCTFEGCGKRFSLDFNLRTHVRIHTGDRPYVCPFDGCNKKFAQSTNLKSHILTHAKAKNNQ
UniProt Q86U90: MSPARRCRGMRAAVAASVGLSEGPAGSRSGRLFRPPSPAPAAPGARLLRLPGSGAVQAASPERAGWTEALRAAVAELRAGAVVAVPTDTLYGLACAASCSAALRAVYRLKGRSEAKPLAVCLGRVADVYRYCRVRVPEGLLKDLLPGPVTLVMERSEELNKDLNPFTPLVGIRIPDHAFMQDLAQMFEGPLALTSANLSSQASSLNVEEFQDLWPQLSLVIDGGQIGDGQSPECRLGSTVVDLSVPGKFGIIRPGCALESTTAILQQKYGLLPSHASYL
UniProt Q9Y2Z4: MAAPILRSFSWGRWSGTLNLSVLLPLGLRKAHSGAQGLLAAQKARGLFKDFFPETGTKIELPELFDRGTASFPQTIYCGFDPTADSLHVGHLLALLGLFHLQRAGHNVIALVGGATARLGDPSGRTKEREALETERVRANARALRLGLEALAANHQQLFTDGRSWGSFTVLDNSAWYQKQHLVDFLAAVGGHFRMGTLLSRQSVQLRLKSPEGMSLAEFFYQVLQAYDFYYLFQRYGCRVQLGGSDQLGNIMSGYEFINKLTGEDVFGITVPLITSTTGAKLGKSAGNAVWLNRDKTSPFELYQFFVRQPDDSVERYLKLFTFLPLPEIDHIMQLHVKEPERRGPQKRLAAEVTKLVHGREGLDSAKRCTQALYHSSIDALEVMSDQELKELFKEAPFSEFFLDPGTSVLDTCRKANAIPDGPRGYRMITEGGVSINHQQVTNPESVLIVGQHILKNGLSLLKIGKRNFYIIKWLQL
UniProt P61981: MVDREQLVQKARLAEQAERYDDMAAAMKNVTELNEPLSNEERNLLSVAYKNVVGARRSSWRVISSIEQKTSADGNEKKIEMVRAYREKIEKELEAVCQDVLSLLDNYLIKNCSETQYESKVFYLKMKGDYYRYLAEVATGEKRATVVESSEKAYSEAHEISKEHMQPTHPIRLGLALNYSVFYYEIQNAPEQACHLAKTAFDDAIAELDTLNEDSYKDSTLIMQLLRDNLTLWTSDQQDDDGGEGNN
UniProt P62699: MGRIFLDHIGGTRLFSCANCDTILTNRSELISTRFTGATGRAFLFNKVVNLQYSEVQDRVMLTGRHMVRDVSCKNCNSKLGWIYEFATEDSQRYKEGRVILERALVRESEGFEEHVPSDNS
UniProt P63104: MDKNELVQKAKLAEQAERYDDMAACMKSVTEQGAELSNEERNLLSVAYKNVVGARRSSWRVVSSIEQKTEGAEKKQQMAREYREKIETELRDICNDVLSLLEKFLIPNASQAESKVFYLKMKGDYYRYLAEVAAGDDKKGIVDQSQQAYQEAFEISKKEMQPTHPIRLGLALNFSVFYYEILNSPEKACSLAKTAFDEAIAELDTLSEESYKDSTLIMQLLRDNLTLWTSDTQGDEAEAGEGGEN
UniProt Q5T200: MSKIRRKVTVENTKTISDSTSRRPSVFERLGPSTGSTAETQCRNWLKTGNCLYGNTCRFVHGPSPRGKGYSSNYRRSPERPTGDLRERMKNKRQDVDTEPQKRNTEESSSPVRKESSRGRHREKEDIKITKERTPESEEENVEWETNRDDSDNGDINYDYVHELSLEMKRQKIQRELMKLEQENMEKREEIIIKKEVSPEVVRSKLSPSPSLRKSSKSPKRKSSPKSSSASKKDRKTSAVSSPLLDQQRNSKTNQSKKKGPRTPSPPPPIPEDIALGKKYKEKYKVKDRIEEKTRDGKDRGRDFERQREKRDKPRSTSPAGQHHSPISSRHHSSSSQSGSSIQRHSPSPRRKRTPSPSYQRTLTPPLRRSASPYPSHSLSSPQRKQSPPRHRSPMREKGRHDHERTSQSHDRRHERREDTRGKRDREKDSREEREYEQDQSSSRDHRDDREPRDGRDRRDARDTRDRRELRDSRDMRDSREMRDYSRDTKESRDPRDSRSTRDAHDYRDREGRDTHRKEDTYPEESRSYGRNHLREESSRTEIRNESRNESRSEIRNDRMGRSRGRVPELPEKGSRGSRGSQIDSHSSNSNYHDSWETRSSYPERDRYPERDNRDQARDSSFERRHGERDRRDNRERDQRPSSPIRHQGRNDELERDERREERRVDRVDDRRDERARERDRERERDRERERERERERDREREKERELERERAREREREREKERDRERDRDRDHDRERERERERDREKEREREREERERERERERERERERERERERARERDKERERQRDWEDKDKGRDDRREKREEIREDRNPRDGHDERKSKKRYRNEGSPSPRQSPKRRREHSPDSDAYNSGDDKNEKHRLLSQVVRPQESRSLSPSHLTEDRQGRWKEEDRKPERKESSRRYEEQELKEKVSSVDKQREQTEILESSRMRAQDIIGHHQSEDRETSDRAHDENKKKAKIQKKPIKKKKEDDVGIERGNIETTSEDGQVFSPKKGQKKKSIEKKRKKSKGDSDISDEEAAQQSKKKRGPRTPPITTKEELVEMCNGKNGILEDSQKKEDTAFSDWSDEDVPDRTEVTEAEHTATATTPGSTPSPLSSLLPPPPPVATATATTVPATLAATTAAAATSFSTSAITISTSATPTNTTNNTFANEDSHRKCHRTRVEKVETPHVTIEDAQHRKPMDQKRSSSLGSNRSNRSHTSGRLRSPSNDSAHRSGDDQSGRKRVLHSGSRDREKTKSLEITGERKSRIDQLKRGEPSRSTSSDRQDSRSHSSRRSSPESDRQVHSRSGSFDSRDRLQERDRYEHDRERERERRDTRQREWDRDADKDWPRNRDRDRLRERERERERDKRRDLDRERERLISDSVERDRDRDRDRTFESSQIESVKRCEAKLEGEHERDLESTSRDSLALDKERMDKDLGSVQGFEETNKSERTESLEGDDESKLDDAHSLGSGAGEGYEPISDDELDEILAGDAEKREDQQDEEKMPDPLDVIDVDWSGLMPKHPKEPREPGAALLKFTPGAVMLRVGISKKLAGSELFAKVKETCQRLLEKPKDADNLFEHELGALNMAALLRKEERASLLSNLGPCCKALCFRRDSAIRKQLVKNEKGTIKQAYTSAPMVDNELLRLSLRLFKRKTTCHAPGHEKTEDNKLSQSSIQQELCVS

How the values were obtained:
Test in all cases: log2 fold change, soluble protein after heating vs DMSO (PISA); higher = thermal stabilisation; K562 lysate, 10 uM; active = over 0.2 and 3.5 SD of the protein, either way, in both replicates (recomputed)
alvocidib = compound: CN1CC[C@H](c2c(O)cc(O)c3c(=O)cc(-c4ccccc4Cl)oc23)[C@H](O)C1 [alvocidib]
Outline: (§1)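 Pellets of K562 cells were dounce-homogenised in PBS pH 7.4 with 1 mM MgCl2, and the crude extract was held at 1 mg/mL protein for a 30 min treatment with 10 μM compound. Aliquots were heated for 3 min over 48°C-58°C and pooled before NP-40 was added to 0.5% at 4°C. The supernatant from 21,000xg for 90 min was quantified by TMTpro 16plex LC-MS/MS with channel sums equalised. Values are reported from duplicates as log-two fold change in thermal stability relative to solvent controls.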

Tubastatin A = compound: CN1CCc2c(c3ccccc3n2Cc2ccc(C(=O)NO)cc2)C1 [Tubastatin A]
Outline: as §1

[1] = compound: CNC(=O)C1=CC=CC=C1NC2=NC(=NC=C2Cl)NC3=C(C=C(C=C3)N4CCOCC4)OC
Outline: as §1

defactinib = compound: CNC(=O)c1ccc(Nc2ncc(C(F)(F)F)c(NCc3nccnc3N(C)S(C)(=O)=O)n2)cc1 [defactinib]
Outline: as §1

[2] = compound: CNc1nc(-c2ccc3c(N)n[nH]c3c2)cc(N2C[C@@H](C(=O)NC3CCCCC3)CC[C@H]2C)n1
Outline: as §1

encorafenib = compound: COC(=O)N[C@@H](C)CNc1nccc(-c2cn(C(C)C)nc2-c2cc(Cl)cc(NS(C)(=O)=O)c2F)n1 [encorafenib]
Outline: as §1

[3] = compound: COC(=O)[C@H](CCSC)NC(=O)C1=C(C=C(C=C1)NC[C@H](CS)N)C2=CC=CC=C2
Outline: as §1

alisertib = compound: COc1cc(Nc2ncc3c(n2)-c2ccc(Cl)cc2C(c2c(F)cccc2OC)=NC3)ccc1C(=O)O [alisertib]
Outline: as §1

[4] = compound: COc1cc2nc(-c3cc(F)ccc3O)nc(N[C@@H]3CNC[C@H]3C(C)(C)O)c2cc1OC
Outline: as §1

gefitinib = compound: COc1cc2ncnc(Nc3ccc(F)c(Cl)c3)c2cc1OCCCN1CCOCC1 [gefitinib]
Outline: as §1

Measured: log2 fold change

XPO7 (UniProt Q9UIA9)
inactive: alvocidib 0.005 | Tubastatin A -0.037 | [1] -0.006 | defactinib -0.003 | [2] -0.011 | encorafenib 0.011 | [3] -0.026 | alisertib -0.004 | [4] 0.009 | gefitinib 0.003

ZFP91 (UniProt Q96JP5)
inactive: alvocidib 0.026 | Tubastatin A -0.079 | [1] 0 | defactinib 0.024 | [2] 0.082 | encorafenib 0.047 | [3] -0.041 | alisertib -0.009 | [4] -0.028 | gefitinib 0.028

YBX1 (UniProt C9J5V9)
inactive: alvocidib -0.255

YME1L1 (UniProt Q96TA2)
inactive: alvocidib 0.018 | Tubastatin A 0.048 | [1] 0.011 | defactinib 0.018 | [2] -0.061 | encorafenib 0.05 | alisertib -0.016 | [4] 0.028 | gefitinib 0.042
active: [3] -0.301

ZFR (UniProt Q96KR1)
inactive: alvocidib 0.016 | Tubastatin A -0.031 | [1] -0.005 | defactinib -0.03 | [2] 0.02 | encorafenib 0.068 | [3] -0.085 | alisertib -0.018 | [4] -0.034 | gefitinib -0.031

ZBTB33 (UniProt Q86T24)
inactive: alvocidib -0.028 | Tubastatin A -0.005 | [1] -0.178 | defactinib -0.062 | [2] 0.119 | encorafenib 0.018 | [3] -0.004 | alisertib -0.059 | [4] -0.307 | gefitinib 0.086

ZC3H11A (UniProt O75152)
inactive: alvocidib 0.098 | Tubastatin A -0.077 | [1] 0.076 | defactinib -0.066 | [2] -0.023 | encorafenib 0.045 | [3] 0.078 | alisertib 0.019 | [4] 0.09 | gefitinib 0.034

ZBTB21 (UniProt Q9ULJ3)
inactive: alvocidib -0.077 | Tubastatin A -0.033 | [1] -0.071 | defactinib 0.033 | [2] 0.059 | encorafenib 0.038 | [3] -0.176 | alisertib 0.074 | [4] 0.042 | gefitinib -0.036

XPR1 (UniProt Q9UBH6)
inactive: alvocidib -0.005 | Tubastatin A -0.013 | [1] 0.145 | defactinib -0.026 | [2] 0.001 | encorafenib 0.031 | [3] 0.035 | alisertib -0.057 | [4] -0.014 | gefitinib 0.032

XPO5 (UniProt Q9HAV4)
inactive: alvocidib 0.025 | Tubastatin A -0.184 | [1] -0.014 | defactinib -0.002 | [2] -0.019 | encorafenib 0.021 | [3] 0.012 | alisertib -0.004 | [4] 0 | gefitinib 0.013

ZCCHC8 (UniProt Q6NZY4)
inactive: alvocidib 0.012 | Tubastatin A -0.047 | [1] 0.017 | defactinib 0 | [2] 0.024 | encorafenib 0.009 | [3] -0.037 | alisertib -0.017 | [4] 0 | gefitinib -0.022

ZFAND2B (UniProt Q8WV99)
inactive: alvocidib -0.069 | Tubastatin A 0.023 | [1] -0.005 | defactinib -0.009 | [2] 0.119 | encorafenib 0.048 | [3] -0.026 | alisertib 0.027 | [4] -0.111 | gefitinib 0.066

YTHDF1 (UniProt Q9BYJ9)
inactive: alvocidib 0.033 | Tubastatin A -0.125 | [1] -0.008 | defactinib 0.1 | [2] -0.083 | encorafenib -0.031 | [3] 0.129 | alisertib 0.005 | [4] 0.047 | gefitinib 0.026

YDJC (UniProt A8MPS7)
inactive: alvocidib -0.039 | Tubastatin A 0.052 | [1] 0.014 | defactinib -0.026 | [2] 0.014 | encorafenib -0.025 | [3] -0.036 | alisertib 0.035 | [4] 0.007 | gefitinib -0.02

ZC3H14 (UniProt Q6PJT7)
inactive: alvocidib -0.013 | Tubastatin A -0.084 | [1] 0.019 | defactinib 0.014 | [2] 0.07 | encorafenib 0.078 | [3] -0.069 | alisertib 0.021 | [4] 0.019 | gefitinib -0.018

ZDHHC5 (UniProt Q9C0B5)
inactive: alvocidib -0.002 | Tubastatin A 0.049 | [1] 0.017 | defactinib 0.038 | [2] 0.042 | encorafenib 0.003 | [3] -0.034 | alisertib -0.041 | [4] 0.017 | gefitinib 0.095

YY1 (UniProt P25490)
inactive: alvocidib 0.037 | Tubastatin A -0.017 | [1] 0.001 | defactinib 0.023 | [2] 0.03 | encorafenib 0 | [3] -0.032 | alisertib 0.013 | [4] -0.035 | gefitinib 0.009

YRDC (UniProt Q86U90)
inactive: alvocidib 0.015 | Tubastatin A -0.006 | [1] 0.044 | defactinib -0.023 | [2] 0.043 | encorafenib 0.003 | [3] -0.1 | alisertib -0.014 | [4] -0.004 | gefitinib -0.001

XRCC1 (UniProt P18887)
inactive: alvocidib 0.054 | Tubastatin A 0.001 | [1] 0.017 | defactinib 0.005 | [2] -0.03 | encorafenib 0.015 | [3] -0.021 | alisertib 0.021 | [4] -0.003 | gefitinib -0.016

YIPF6 (UniProt Q96EC8)
inactive: alvocidib -0.019 | Tubastatin A -0.001 | [1] 0.07 | defactinib 0.224 | [2] -0.064 | encorafenib -0.026 | [3] -0.004 | alisertib 0.094 | [4] -0.02 | gefitinib 0.006

YARS2 (UniProt Q9Y2Z4)
inactive: alvocidib -0.062 | Tubastatin A -0.074 | [1] 0.022 | defactinib 0.029 | [2] 0.003 | encorafenib 0.088 | [3] -0.024 | alisertib -0.06 | [4] 0.005 | gefitinib 0.028

YWHAG (UniProt P61981)
inactive: alvocidib -0.02 | Tubastatin A 0.007 | [1] -0.016 | defactinib 0.027 | [2] 0.009 | encorafenib -0.014 | [3] -0.027 | alisertib -0.044 | [4] 0.007 | gefitinib -0.083

ZGPAT (UniProt Q8N5A5)
inactive: alvocidib -0.051 | Tubastatin A -0.133 | [1] -0.038 | defactinib 0.106 | [2] 0.009 | encorafenib 0.12 | [3] 0.042 | alisertib 0.022 | [4] 0.025 | gefitinib 0.009

YPEL5 (UniProt P62699)
inactive: alvocidib -0.004 | Tubastatin A 0.025 | [1] -0.03 | defactinib -0.026 | [2] -0.012 | encorafenib 0.025 | [3] -0.038 | alisertib 0.047 | [4] -0.013 | gefitinib 0.058

ZC2HC1A (UniProt Q96GY0)
inactive: alvocidib -0.034 | Tubastatin A -0.044 | [1] -0.021 | defactinib -0.155 | [2] -0.04 | encorafenib 0.03 | alisertib -0.073 | [4] -0.021 | gefitinib 0.019
active: [3] -0.235

YBX3 isoform 2 (UniProt P16989)
inactive: alvocidib -0.039 | Tubastatin A -0.043 | [1] 0.01 | defactinib 0.077 | [2] -0.144 | encorafenib 0.032 | [3] -0.06 | alisertib -0.084 | [4] -0.008 | gefitinib 0.056

Quoted from the listing (7 entries):
YRDC (UniProt Q86U90)
inactive: alvocidib 0.015 | Tubastatin A -0.006 | [1] 0.044 | defactinib -0.023 | [2] 0.043 | encorafenib 0.003 | [3] -0.1 | alisertib -0.014 | [4] -0.004 | gefitinib -0.001

XRCC1 (UniProt P18887)
inactive: alvocidib 0.054 | Tubastatin A 0.001 | [1] 0.017 | defactinib 0.005 | [2] -0.03 | encorafenib 0.015 | [3] -0.021 | alisertib 0.021 | [4] -0.003 | gefitinib -0.016

YIPF6 (UniProt Q96EC8)
inactive: alvocidib -0.019 | Tubastatin A -0.001 | [1] 0.07 | defactinib 0.224 | [2] -0.064 | encorafenib -0.026 | [3] -0.004 | alisertib 0.094 | [4] -0.02 | gefitinib 0.006

YARS2 (UniProt Q9Y2Z4)
inactive: alvocidib -0.062 | Tubastatin A -0.074 | [1] 0.022 | defactinib 0.029 | [2] 0.003 | encorafenib 0.088 | [3] -0.024 | alisertib -0.06 | [4] 0.005 | gefitinib 0.028

YWHAG (UniProt P61981)
inactive: alvocidib -0.02 | Tubastatin A 0.007 | [1] -0.016 | defactinib 0.027 | [2] 0.009 | encorafenib -0.014 | [3] -0.027 | alisertib -0.044 | [4] 0.007 | gefitinib -0.083

ZGPAT (UniProt Q8N5A5)
inactive: alvocidib -0.051 | Tubastatin A -0.133 | [1] -0.038 | defactinib 0.106 | [2] 0.009 | encorafenib 0.12 | [3] 0.042 | alisertib 0.022 | [4] 0.025 | gefitinib 0.009

YPEL5 (UniProt P62699)
inactive: alvocidib -0.004 | Tubastatin A 0.025 | [1] -0.03 | defactinib -0.026 | [2] -0.012 | encorafenib 0.025 | [3] -0.038 | alisertib 0.047 | [4] -0.013 | gefitinib 0.058

Additional entries

ZFYVE28 (UniProt Q9HCC9)
inactive: alvocidib 0.019 | Tubastatin A 0.052 | [1] -0.095 | defactinib 0.054 | [2] 0.076 | encorafenib 0.007 | [3] 0.06 | alisertib -0.086 | [4] 0.085 | gefitinib 0.201

YARS (UniProt P54577)
inactive: alvocidib 0.031 | Tubastatin A -0.038 | [1] -0.024 | defactinib -0.007 | [2] -0.009 | encorafenib -0.023 | [3] 0.11 | alisertib 0 | [4] 0.018 | gefitinib -0.022

ZCCHC17 (UniProt Q9NP64)
inactive: alvocidib 0.047 | Tubastatin A 0.057 | [1] 0.007 | defactinib 0.146 | [2] 0.014 | encorafenib -0.095 | [3] 0.061 | alisertib -0.013 | [4] -0.033 | gefitinib -0.112

YWHAZ (UniProt P63104)
inactive: alvocidib -0.003 | Tubastatin A 0.012 | [1] -0.023 | defactinib -0.011 | [2] -0.01 | encorafenib -0.025 | [3] -0.026 | alisertib 0.004 | [4] -0.007 | gefitinib -0.013

ZC3H13 (UniProt Q5T200)
active: alisertib -0.362
inactive: alvocidib -0.063 | Tubastatin A 0.063 | [1] -0.073 | defactinib 0.088 | [2] -0.028 | encorafenib -0.069 | [3] 0.021 | [4] 0.016 | gefitinib -0.077
